PubChem BioAssay AID1224830, NIAID, 2016
Aim: 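Host factors that control LPS-induced TNF expression in human macrophages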 (primary screen). System: human THP-1 monocytic leukaemia cells, TNF dual-luciferase reporter clone, PMA-differentiated to macrophage-like cells. Knock-down reagent: siRNA pool against human genes, 50 nM. Timing: LPS for 4 h, given about 3 days after siRNA transfection. Conditions: bacterial LPS (TLR4 ligand), 10 ng/ml. Measurement: 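Ratio of firefly to renilla light, scaled to the plate median and expressed as a robust z-score per replicate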. Scale: TNF reporter robust z-score: higher = stronger TNF reporter response to LPS. Hit rule: 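a well is active when its z-score exceeds 2.8 or falls below -1.5; control wells carry no call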.
The whole screen tested about 18,000 reagents; below is an unselected part. About 2,900 of them (16%) count as active. 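Calls are made per well; low scores hint the gene aids the LPS response, high scores that it dampens it.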 Repeated entries: four replicate wells of each siRNA pool.

| target | TNF reporter robust z-score | outcome |
| --- | --- | --- |
| AKR7A2 (aldo-keto reductase family 7 member A2) | -0.52 | inactive |
| AKR7A2 (aldo-keto reductase family 7 member A2) | 1 | inactive |
| AKR7A2 (aldo-keto reductase family 7 member A2) | -0.64 | inactive |
| AKR7A2 (aldo-keto reductase family 7 member A2) | 0.03 | inactive |
| DIO1 (iodothyronine deiodinase 1) | -0.51 | inactive |
| DIO1 (iodothyronine deiodinase 1) | -0.95 | inactive |
| DIO1 (iodothyronine deiodinase 1) | -0.66 | inactive |
| DIO1 (iodothyronine deiodinase 1) | -0.19 | inactive |
| WDR31 (WD repeat domain 31) | -1.54 | active |
| WDR31 (WD repeat domain 31) | -1.48 | inactive |
| WDR31 (WD repeat domain 31) | -1.65 | active |
| WDR31 (WD repeat domain 31) | -1.61 | active |
| L1TD1 (LINE1 type transposase domain containing 1) | 1.29 | inactive |
| L1TD1 (LINE1 type transposase domain containing 1) | 0.92 | inactive |
| L1TD1 (LINE1 type transposase domain containing 1) | 0.19 | inactive |
| L1TD1 (LINE1 type transposase domain containing 1) | 0.88 | inactive |
| TNFSF11 (TNF superfamily member 11) | 1.62 | inactive |
| TNFSF11 (TNF superfamily member 11) | 1.57 | inactive |
| TNFSF11 (TNF superfamily member 11) | -0.2 | inactive |
| TNFSF11 (TNF superfamily member 11) | -0.7 | inactive |
| ALG12 (ALG12 alpha-1,6-mannosyltransferase) | 1.57 | inactive |
| ALG12 (ALG12 alpha-1,6-mannosyltransferase) | 0.64 | inactive |
| ALG12 (ALG12 alpha-1,6-mannosyltransferase) | -0.04 | inactive |
| ALG12 (ALG12 alpha-1,6-mannosyltransferase) | 1.73 | inactive |
| NOL8 (nucleolar protein 8) | 1.06 | inactive |
| NOL8 (nucleolar protein 8) | 1.62 | inactive |
| NOL8 (nucleolar protein 8) | 0.02 | inactive |
| NOL8 (nucleolar protein 8) | 0.5 | inactive |
| EDA (ectodysplasin A) | -0.81 | inactive |
| EDA (ectodysplasin A) | -1.02 | inactive |
| EDA (ectodysplasin A) | -1.17 | inactive |
| EDA (ectodysplasin A) | -0.97 | inactive |
| KCNC3 (potassium voltage-gated channel subfamily C member 3) | -0.07 | inactive |
| KCNC3 (potassium voltage-gated channel subfamily C member 3) | 2.27 | inactive |
| KCNC3 (potassium voltage-gated channel subfamily C member 3) | 0.03 | inactive |
| KCNC3 (potassium voltage-gated channel subfamily C member 3) | 0.74 | inactive |
| ITM2A (integral membrane protein 2A) | 2.9 | active |
| ITM2A (integral membrane protein 2A) | 1.57 | inactive |
| ITM2A (integral membrane protein 2A) | 2.36 | inactive |
| ITM2A (integral membrane protein 2A) | 1.23 | inactive |
| CPT1B (carnitine palmitoyltransferase 1B) | -0.95 | inactive |
| CPT1B (carnitine palmitoyltransferase 1B) | -1.21 | inactive |
| CPT1B (carnitine palmitoyltransferase 1B) | -0.03 | inactive |
| CPT1B (carnitine palmitoyltransferase 1B) | 0.4 | inactive |
| ATP7B (ATPase copper transporting beta) | -0.26 | inactive |
| ATP7B (ATPase copper transporting beta) | 0.32 | inactive |
| ATP7B (ATPase copper transporting beta) | 0.56 | inactive |
| ATP7B (ATPase copper transporting beta) | 0.26 | inactive |
| C2CD2 (C2 calcium dependent domain containing 2) | -0.95 | inactive |
| C2CD2 (C2 calcium dependent domain containing 2) | -0.36 | inactive |
| C2CD2 (C2 calcium dependent domain containing 2) | 0.27 | inactive |
| C2CD2 (C2 calcium dependent domain containing 2) | -0.3 | inactive |
| LGR5 (leucine rich repeat containing G protein-coupled receptor 5) | -0.46 | inactive |
| LGR5 (leucine rich repeat containing G protein-coupled receptor 5) | -0.67 | inactive |
| LGR5 (leucine rich repeat containing G protein-coupled receptor 5) | -0.42 | inactive |
| LGR5 (leucine rich repeat containing G protein-coupled receptor 5) | -0.45 | inactive |
| CLN8 (CLN8 transmembrane ER and ERGIC protein) | -0.2 | inactive |
| CLN8 (CLN8 transmembrane ER and ERGIC protein) | -0.04 | inactive |
| CLN8 (CLN8 transmembrane ER and ERGIC protein) | 1.26 | inactive |
| CLN8 (CLN8 transmembrane ER and ERGIC protein) | 0.37 | inactive |
| OR5F1 (olfactory receptor family 5 subfamily F member 1) | 1.52 | inactive |
| OR5F1 (olfactory receptor family 5 subfamily F member 1) | 1.12 | inactive |
| OR5F1 (olfactory receptor family 5 subfamily F member 1) | 0.29 | inactive |
| OR5F1 (olfactory receptor family 5 subfamily F member 1) | 0.23 | inactive |
| ARRDC5 (arrestin domain containing 5) | 0.43 | inactive |
| ARRDC5 (arrestin domain containing 5) | 0.29 | inactive |
| ARRDC5 (arrestin domain containing 5) | -1.27 | inactive |
| ARRDC5 (arrestin domain containing 5) | 0.34 | inactive |
| SEPSECS | 0.39 | inactive |
| SEPSECS | -0.14 | inactive |
| SEPSECS | 0.66 | inactive |
| SEPSECS | 0.24 | inactive |
| GGT6 (gamma-glutamyltransferase 6) | -0.48 | inactive |
| GGT6 (gamma-glutamyltransferase 6) | -0.4 | inactive |
| GGT6 (gamma-glutamyltransferase 6) | -0.63 | inactive |
| GGT6 (gamma-glutamyltransferase 6) | -0.94 | inactive |
| DEXI (Dexi homolog) | 0.1 | inactive |
| DEXI (Dexi homolog) | -0.45 | inactive |
| DEXI (Dexi homolog) | 0.01 | inactive |
| DEXI (Dexi homolog) | 0.61 | inactive |
| ERV3-1 (endogenous retrovirus group 3 member 1, envelope) | 2.04 | inactive |
| ERV3-1 (endogenous retrovirus group 3 member 1, envelope) | 0.57 | inactive |
| ERV3-1 (endogenous retrovirus group 3 member 1, envelope) | 1.91 | inactive |
| ERV3-1 (endogenous retrovirus group 3 member 1, envelope) | 2.11 | inactive |
| RICTOR (RPTOR independent companion of MTOR complex 2) | 1 | inactive |
| RICTOR (RPTOR independent companion of MTOR complex 2) | 1.07 | inactive |
| RICTOR (RPTOR independent companion of MTOR complex 2) | 1.02 | inactive |
| RICTOR (RPTOR independent companion of MTOR complex 2) | 3.46 | active |
| SPRR2B (small proline rich protein 2B) | 0.8 | inactive |
| SPRR2B (small proline rich protein 2B) | 1.94 | inactive |
| SPRR2B (small proline rich protein 2B) | 1.61 | inactive |
| SPRR2B (small proline rich protein 2B) | 2.7 | inactive |
| ZNF438 (zinc finger protein 438) | -0.7 | inactive |
| ZNF438 (zinc finger protein 438) | -0.71 | inactive |
| ZNF438 (zinc finger protein 438) | -1.14 | inactive |
| ZNF438 (zinc finger protein 438) | -0.42 | inactive |
| TMEM14A (transmembrane protein 14A) | -0.24 | inactive |
| TMEM14A (transmembrane protein 14A) | -0.32 | inactive |
| TMEM14A (transmembrane protein 14A) | -0.19 | inactive |
| TMEM14A (transmembrane protein 14A) | -0.78 | inactive |
| ZNF629 (zinc finger protein 629) | 0.77 | inactive |
| ZNF629 (zinc finger protein 629) | 1.25 | inactive |
| ZNF629 (zinc finger protein 629) | -0.8 | inactive |
| ZNF629 (zinc finger protein 629) | -1.38 | inactive |
| CHSY1 (chondroitin sulfate synthase 1) | -0.08 | inactive |
| CHSY1 (chondroitin sulfate synthase 1) | 0.47 | inactive |
| CHSY1 (chondroitin sulfate synthase 1) | -0.2 | inactive |
| CHSY1 (chondroitin sulfate synthase 1) | 0.14 | inactive |
| GPR84 (G protein-coupled receptor 84) | -0.63 | inactive |
| GPR84 (G protein-coupled receptor 84) | -0.52 | inactive |
| GPR84 (G protein-coupled receptor 84) | -0.55 | inactive |
| GPR84 (G protein-coupled receptor 84) | 0.64 | inactive |
| C3orf70 (chromosome 3 open reading frame 70) | -1.12 | inactive |
| C3orf70 (chromosome 3 open reading frame 70) | 0.09 | inactive |
| C3orf70 (chromosome 3 open reading frame 70) | 0.59 | inactive |
| C3orf70 (chromosome 3 open reading frame 70) | 1.05 | inactive |
| GBX2 (gastrulation brain homeobox 2) | 0.87 | inactive |
| GBX2 (gastrulation brain homeobox 2) | 0.52 | inactive |
| GBX2 (gastrulation brain homeobox 2) | 0.16 | inactive |
| GBX2 (gastrulation brain homeobox 2) | 0.01 | inactive |
| AMBN (ameloblastin) | 2.32 | inactive |
| AMBN (ameloblastin) | 0.61 | inactive |
| AMBN (ameloblastin) | 2.02 | inactive |
| AMBN (ameloblastin) | 1.23 | inactive |
| SATB2 (SATB homeobox 2) | 1.31 | inactive |
| SATB2 (SATB homeobox 2) | 0.83 | inactive |
| SATB2 (SATB homeobox 2) | 0.21 | inactive |
| SATB2 (SATB homeobox 2) | 0.17 | inactive |
| TMEM95 (transmembrane protein 95) | 0.16 | inactive |
| TMEM95 (transmembrane protein 95) | 2.71 | inactive |
| TMEM95 (transmembrane protein 95) | 0.71 | inactive |
| TMEM95 (transmembrane protein 95) | 1.06 | inactive |
| INTS13 (integrator complex subunit 13) | -0.84 | inactive |
| INTS13 (integrator complex subunit 13) | -0.01 | inactive |
| INTS13 (integrator complex subunit 13) | -0.12 | inactive |
| INTS13 (integrator complex subunit 13) | -0.38 | inactive |
| PSMD2 (proteasome 26S subunit ubiquitin receptor, non-ATPase 2) | -2.2 | active |
| PSMD2 (proteasome 26S subunit ubiquitin receptor, non-ATPase 2) | -2.26 | active |
| PSMD2 (proteasome 26S subunit ubiquitin receptor, non-ATPase 2) | -2.12 | active |
| PSMD2 (proteasome 26S subunit ubiquitin receptor, non-ATPase 2) | -2.14 | active |
